Earlier results, collected in US6329349A, “Methods for reducing ischemic injury of the heart via the sequential administration of monophosphoryl lipid A and adenosine receptor agents” (priority 2000, dated 2001).
At least one read-out could not be matched to a standard name with certainty.

Tested on: Rat Brain A1 and A2 -Receptors
Conditions: second value printed in brackets below the first, not explained in the patent; cited from earlier work

Structure (SMILES) | A1 /A2 ratio, value in square brackets
COc1cc(/C=C/c2nc3c(c(=O)n(C)c(=O)n3C)n2C)cc(OC)c1OC [44b] | > 5600
C=CCn1c(=O)c2c(nc(/C=C/c3cc(OC)c(OC)c(OC)c3)n2C)n(CC=C)c1=O [compound 46] | > 6700
